Laboratory results: patent US20140099332A1 (IMMUNOGEN, published 2014)
No constants are given. Whether binding was seen depends on the method and setting. Some entries that bind do so weakly or less than the wild type. Blank lines part the entries; values can stand above or below the binder they belong to.

Chains of the proteins cited; added tags and fusions are not shown. Lines headed by an entry give the natural chain unless they say otherwise; changes in a name come on top.
UniProt P15328: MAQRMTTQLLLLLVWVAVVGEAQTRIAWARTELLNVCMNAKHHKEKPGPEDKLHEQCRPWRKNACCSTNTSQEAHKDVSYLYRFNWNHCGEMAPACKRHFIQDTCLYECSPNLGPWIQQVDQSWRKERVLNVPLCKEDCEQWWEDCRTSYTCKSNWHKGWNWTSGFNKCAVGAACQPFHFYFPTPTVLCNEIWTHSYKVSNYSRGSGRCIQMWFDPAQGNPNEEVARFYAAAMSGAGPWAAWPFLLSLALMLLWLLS

Columns and labels:
[1] = target: T1, human FolR1-Fc fusion protein (human; mouse, UniProt P15328 25-233); experiment: FOLR1 sandwich ELISA of Example 7, serially diluted Folr1-Fc (30nM) standard; x axis is a dilution step, no concentration
T1 construct: The construct encodes the 233 amino acids from the N-terminal signal peptide to just upstream of the GPI linkage site; also called huFOLR1-Fc; human folate receptor 1 Fc fusion molecule; not shown: residues encoded by the Pst1 to BamHI oligonucleotide linker

[2] = target: FOLR1 (antigen of the screening ELISAs, form not stated) (human) (UniProt P15328); experiment: sandwich ELISA
[3] = target: T1, human FolR1-Fc fusion protein; experiment: sandwich ELISA, muFR1-9 capture and biotinylated muFR1-13 detection
[4] = target: T1, human FolR1-Fc fusion protein; experiment: sandwich ELISA, FR1-9 capture and biotinylated FR1-13 detection; 60nM FOLR1-Fc sample serially diluted
[5] = target: T1, human FolR1-Fc fusion protein; experiment: sandwich ELISA (FOLR1 ELISA): clone coated on the plate as capture antibody, FOLR-Fc fusion titrated, format as in FIG. 1
Experimental: The 40 clones were alternatively coated onto the assay plate in place of muFR1-9 in the diagram, and the resulting binding curves were analyzed shown in FIG. 5. Antibodies that contained the lowest half-maximal response (EC50) were considered to have the highest binding specificity to FOLR1, and thus were chosen as the top candidates for the assay.

[6] = target: FOLR1 (antigen of the screening ELISAs, form not stated) (human) (UniProt P15328); experiment: competition ELISA: serial concentrations of competing murine clone against a constant concentration of (biotinylated) muFR1-13

binding [1]: binds
binding [2]: binds
binding [3]: binds
binding [4]: binds
binding [5]: binds
B1: muFR1-9 (antibody, mouse IgG1, kappa, V domains shown)
VH: QVQLVESGGGLVQPGGSRKLSCAASGFTFSSFGMHWVRQAPEKGLEWVAYISSGSSTFYYADTVKGRFTISRDNPKNTLFLQMTSLRSEDTAMYYCAKELTGTFAYWGQGTLVTVSA
VL: DIVLTQSPATLSVTPGDSVSLSCRASQSINNNLHWYQQKSHESPRLLIKYASQSISGIPSRFSGSGSGTDFTLSINSVETEDFGMYFCQQSNSWPQVTFGAGTKLELKR
notes: Murine monoclonal purified from hybridoma supernatant; Capture antibody of the sandwich ELISA; also called murine FR1-9

binding [2]: binds
B2: muFR1-62 (antibody, mouse IgG1, kappa, V domains shown)
VH: QVQLQQSGAELARPGASVKMSCKASGYTFTTYTMHWVKQRPGQGLEWIAYINPTSGYNNYNQKFKEKATLTADKSSSTAYMQLTSLTSEDSAVYYCASGGAYGRRPVDYWGQGTSVTVSS
VL: DIVMTQSQKFMSISVGDRVSVTCKASQNVGTNVAWYQQKPGQSPKTLIYSASSRYSGVPDRFTGSGSGTDFTLTISNVQSEDLADYFCHQYNSYPYTFGGGTKLEIKR
notes: Murine monoclonal; The full-length light chain differs from the VL by shifted residues

binding [6]: binds
B3: muFR1-13 (antibody, mouse IgG2b, kappa, V domains shown)
VH: QVQLKESGPDLVAPSQSLSITCTVSGFSLSRYSVHWIRQPPGKGLEWLGMIWSGGNTDYNSVFKSRLNITKDNSKSQVFLKMNSLQTDDTAIYYCATFDGKVSWFAYWGQGTLVTVSA
VL: SIVMTQTPKFLLVSTGDRFTITCKASQSVSNDVLWYQQKPGQSPKLLIYYAYNRYSGVPDRFTGSGYGTDFTFTITTVQSEDLAVYFCQQDHSSPFTFGSGTKLEIKR
notes: Murine monoclonal purified from hybridoma supernatant; also called muFR1-13b (biotinylated); Biotinylated FR1-13

binding [2]: binds
B4: muFR1-53 (antibody, mouse IgG1, kappa, V domains shown)
VH: QVQLQQSGPELVRPGASVKMSCKASGYKFTDYDISWVLQRTGQGLEWIGEIYPGSGRTYYNERFKGKATLTADKSSNTVYMQLSSLTSEDSAVYFCASSYYYGTNSPFAYWGQGTTLTVSS
VL: DIQMTQTTSSLSASLGDRVTISCRASQDISNYLHWYQRKPDGTVKLLVYYTSRLQSGVPSRFSGSGSGTDYSLTISNLEQEDIATYFCQQGNSLPPTFGSGTKLEIKR
notes: The full-length chains differ from the variable domains by shifted residues
